# Data reported in PubChem BioAssay AID1439 (NMMLSC, 2008).
# Chains of the proteins cited; added tags and fusions are not shown.
# UniProt P09471, whole entry, looked up: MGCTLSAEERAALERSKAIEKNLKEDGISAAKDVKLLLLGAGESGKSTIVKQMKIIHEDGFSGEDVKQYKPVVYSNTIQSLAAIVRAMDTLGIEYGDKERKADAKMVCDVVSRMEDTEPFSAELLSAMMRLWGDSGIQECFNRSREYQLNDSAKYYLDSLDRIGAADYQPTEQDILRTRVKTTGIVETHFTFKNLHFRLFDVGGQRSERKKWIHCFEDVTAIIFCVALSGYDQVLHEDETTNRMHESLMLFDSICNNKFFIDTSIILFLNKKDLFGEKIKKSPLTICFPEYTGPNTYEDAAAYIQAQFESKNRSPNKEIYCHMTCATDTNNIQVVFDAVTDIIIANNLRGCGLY
# Out of some 220,000 compounds screened, about 770 (0.35%) were called active. This list was built around the results that the source calls inconclusive (neither active nor inactive); the mix of calls is not that of the screen. No stated cut-off is given here; in the data, active means binding response below about 49% or above about 150%; inconclusive means no clear call, values can overlap the other calls; inactive means in between.
# Biological target: Guanine nucleotide-binding protein G(o) subunit alpha (Homo sapiens) (UniProt P09471)
# Assay: RGS7-Galphao binding modulators, primary screen, biochemical, multiplexed bead flow cytometry (AID 1439);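 further: fluorescent Galphao held in activated GDP-AlF4 state binding bead-coupled RGS7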
# Settings: at 10 µM, actives lie on both sides
row,Compound,binding response (% of control)
1,Cn1nc(C(C)(C)C)cc1C(=O)NNC(=O)c1ccccc1Cl,inconclusive: 163%
2,Cc1noc(C)c1S(=O)(=O)Nc1ccccc1N1CCOCC1,inconclusive: 103%
3,CSc1ccc(NC(=O)c2cccnc2)cc1C#N,inconclusive: 102%
4,COc1ccccc1/C=N/NC(=O)c1ccc(CN2C(=O)c3cccc4cccc2c34)cc1,inconclusive: 124%
5,Cc1cc(Oc2ccc(N)cn2)ccc1Cl,inconclusive: 88.9%
6,O=C(O)C(Oc1ccc2c(-c3ccccc3)cc(=O)oc2c1)c1ccccc1 (centres undefined),inconclusive: 103%
7,CCOc1ccc(NC(=O)C(C)NS(=O)(=O)c2ccc(NC(C)=O)cc2)cc1 (centres undefined),inconclusive: 86.2%
8,COc1ccccc1Nc1nnc(SCC(=O)Nc2nc(-c3ccc(F)cc3)cs2)s1,inactive: 104%
9,CC(C)n1cnc2c(N(C)c3cccc(Cl)c3)nc(N(CCO)CCO)nc21,inconclusive: 104%
10,CCCCn1c(SCC(=O)c2cc(OC)ccc2OC)nc2cc(S(N)(=O)=O)ccc21,inactive: 109%
11,Cn1nc(C(C)(C)C)cc1NC(=O)Nc1cc(Cl)cc(Cl)c1,inconclusive: 111%
12,CCC(=O)Nc1cccc(C(=O)OCc2cccc([N+](=O)[O-])c2)c1,inactive: 98.2%
13,CC(=O)NCc1ccc(S(=O)(=O)NC2CCN(Cc3ccccc3)CC2)cc1,inconclusive: 68.2%
14,N=C1CCCN1c1ccccc1O,inconclusive: 110%
15,O=C(NCC1OCCc2ccccc21)c1ccc(NC(=O)c2ccccc2Cl)cc1 (centres undefined),inactive: 101%
16,CNc1ccc(Cl)cc1C(N)=O,inconclusive: 98.9%
17,CC(C)(C)C(=O)NC1(C(F)(F)F)NC(=O)N(c2ccccc2F)C1=O (centres undefined),inconclusive: 101%
18,CN(CCOc1ccccc1)CC(=O)Nc1ccc(Cl)cc1[N+](=O)[O-],inconclusive: 96.4%
19,COc1ccc(N(CC(=O)Nc2ccccc2C(=O)O)S(=O)(=O)c2ccc(C)c([N+](=O)[O-])c2)cc1,inconclusive: 76.2%
20,CC1(C)CC(=O)C(C(=S)Nc2ccccc2)=C(NC2CC(C)(C)NC(C)(C)C2)C1,inactive: 103%

row,Compound,binding response (% of control)
1,CCOC(=O)Nc1cc(C)ccc1OC,inactive: 142%
2,COc1cc(/C=N/n2c(-c3cc(C)[nH]n3)n[nH]c2=S)ccc1O,inconclusive: 70.7%
3,CCCS(=O)(=O)N1CCN=C1SCc1cccnc1,inactive: 97.8%
4,Cc1nc(C(=O)NNC(=O)Nc2ccc(Cl)cc2)cs1,inconclusive: 122%
5,Cc1ccc(C(=O)NNC2=Nc3cc([N+](=O)[O-])ccc3OC2)cc1,inconclusive: 96.9%
6,O=C(CCl)NN=C(c1ccccc1)c1ccccc1,inconclusive: 77.8%
7,OCCN(CC#CCn1c2ccccc2c2ccccc21)CCO,inconclusive: 101%
8,O=S(=O)(N1CCCCC1)N1CCN(c2ccccc2F)CC1,active: 156% [activator]
9,COc1ccc2c(c1)c1ncn(CCc3ccccc3)c(=O)c1n2C,inactive: 96.3%
10,CC1(C)Cc2ccccc2C2=NNC(=O)C2=N1,inconclusive: 104%
11,O=C(N/N=C/C1CC2CCC1C2)c1ccc2c(c1)OCO2 (centres undefined),inactive: 103%
12,N#Cc1ccc(-c2csc(NC(=O)c3ccc(S(=O)(=O)N4CCc5ccccc5C4)cc3)n2)cc1,inactive: 99.5%
13,CNC(=S)N1CCC(NC(=O)C(Cc2ccccc2)NC(C)=O)CC1 (centres undefined),inactive: 106%
14,O=C(CN1C(=O)S/C(=C\c2ccc(F)cc2)C1=O)Nc1cccc(S(=O)(=O)NCc2ccco2)c1,inactive: 102%
15,Cc1ccc(NC(=O)c2csc3c2CCCC3)cc1,inconclusive: 119%
16,CSC1=NCCN1C(=O)Cc1cccc2ccccc12,inconclusive: 99.2%
17,CCc1ccc(C(=O)NCc2cnn(C)c2)s1,inconclusive: 99.6%
18,COc1ccc(CSc2ncnc3sccc23)cc1F,inactive: 104%
19,C=C1[C@@H](OC(C)=O)CC[C@]2(C)[C@@H]1C[C@@H]1C[C@H](OC(C)=O)C(C)=C([C@@H](OC(C)=O)[C@@H]2OC(C)=O)C1(C)C,inconclusive: 105%
20,Cc1ccc(NC(=O)C(C)S)cc1 (centres undefined),inconclusive: 87.8%

row,Compound,binding response (% of control)
1,Cc1ccc2[nH]c(=O)c(CN(CCCO)C(C)c3nnnn3Cc3ccco3)cc2c1 (centres undefined),inconclusive: 85.7%
2,CC(C)CNC(=O)CCc1nc(-c2ccccc2)no1,inconclusive: 185%
3,C=CCS/C(N)=N\N=C\c1cc(Br)cc([N+](=O)[O-])c1O,inconclusive: 126%
4,COc1cc(/C=N/NC(=O)CNc2n[nH]c(=O)[nH]c2=O)ccc1O,inactive: 106%
5,CN(C)/C=C/C(=O)c1ccc(Cl)c([N+](=O)[O-])c1,inconclusive: 96.8%
6,Cc1ccc(CNC(=O)C2CC(c3cccc(F)c3)=NO2)cc1 (centres undefined),inconclusive: 127%
7,CN(C(=O)COC(=O)c1ccc(=O)n(Cc2ccccc2)n1)c1ccccc1,inactive: 101%
8,CC(C)Cn1c(SCC(=O)N2CCCc3ccccc32)nc2ccccc2c1=O,inconclusive: 102%
9,Cc1nc(Nc2ccccc2)sc1C,inconclusive: 102%
10,Cc1cc(S(=O)(=O)NC2CCN(Cc3ccccc3)CC2)c(C)cc1Cl,inconclusive: 28.6%
11,O=C(CCC(=O)N(CC(=O)NC1CCCCC1)CC1CCCO1)Nc1nccs1 (centres undefined),inactive: 106%
12,Cn1cccc1-c1nc2ccccc2[nH]1,inconclusive: 94.4%
13,Cc1ccc(-c2csc3nc(-c4ccncc4)[nH]c(=O)c23)cc1,inconclusive: 107%
14,COC(=O)c1sccc1S(=O)(=O)Nc1ccc(S(N)(=O)=O)cc1,inconclusive: 109%
15,Cc1ccc(Nc2c3c(nc4ccccc24)CCC3)cc1,inconclusive: 96.7%
16,CCNC(=O)COC(=O)c1cc(S(=O)(=O)N2CCCc3ccccc32)ccc1Cl,inconclusive: -35.1%
17,CCn1c(SCC(=O)Nc2cccc(C)c2)nc2c(c1=O)SC(C)C2 (centres undefined),inactive: 95.3%
18,CCOC(=O)c1sc2nc(C)nc(NCc3cccnc3)c2c1C,inconclusive: 86.5%
19,O=C(CC1C(=O)NCCN1Cc1c(F)cccc1Cl)NCCCn1cccn1 (centres undefined),inconclusive: 86.9%

# Compounds listed so far that have an NH in an aromatic ring, in the order listed:
row,Compound,binding response (% of control)
2,COc1cc(/C=N/n2c(-c3cc(C)[nH]n3)n[nH]c2=S)ccc1O,inconclusive: 70.7%
1,Cc1ccc2[nH]c(=O)c(CN(CCCO)C(C)c3nnnn3Cc3ccco3)cc2c1 (centres undefined),inconclusive: 85.7%
4,COc1cc(/C=N/NC(=O)CNc2n[nH]c(=O)[nH]c2=O)ccc1O,inactive: 106%
12,Cn1cccc1-c1nc2ccccc2[nH]1,inconclusive: 94.4%
13,Cc1ccc(-c2csc3nc(-c4ccncc4)[nH]c(=O)c23)cc1,inconclusive: 107%
